Most values lie at the level of the controls, where differences are scatter.

Assay in all cases: normalised response (% of control), CellTox Green; higher = less cell death (100 = DMSO, 0 = benzethonium chloride kill control)
What all share (conditions): incubation time: 72 h

For experiment [1], the system named is HCC1143. Here is the method: (§1)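 DSRT, 72 h incubation, CellTox Green / CellTiter-Glo readout. Signal is normalised to DMSO and benzethonium chloride controls. Value is the normalised response at the lowest tested concentration.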
For experiment [2], the system named is CAL-120. The method, then: as §1
Experiment [3] deals with Hs578T. The method, then: as §1
Experiment [4] concerns MDA-MB-231. The method, then: as §1
The subject of experiment [5] is CAL-148. The method, then: as §1
Experiment [6] concerns MFM-223. Here is the method: as §1
Experiment [7] relates to MDA-MB-468. Here is the method:
as §1

For experiment [8], the system named is HCC1937. Here is the method: as §1
Experiment [9] concerns HCC1599. The method, then: as §1
The test system of experiment [10] is HDQ-P1. Here is the method: as §1
In experiment [11] the test system is MDA-MB-436. Here is the method:
as §1

For experiment [12], the system named is BT-549. The method, then: as §1
Experiment [13] has as its system DU-4475. The method, then:
as §1

Experiment [14] relates to CAL-51. Here is the method:
as §1

The subject of experiment [15] is BT-474. Here is the method: as §1
For experiment [16], the system named is MDA-MB-453. The method, then: as §1
The test system of experiment [17] is CAL-85-1. The method, then: as §1
The test system of experiment [18] is MCF-10A. Here is the method:
as §1

On to `CC(C)C[C@H](NC(=O)[C@H](Cc1ccccc1)NC(=O)c1cnccn1)B(O)O` [Bortezomib] (0.1 nM), for which the normalised response is 118% in experiment [1]; 106% in experiment [2]; 116% in experiment [3]; 91.3% in experiment [4]; 102% in experiment [5]; 103% in experiment [6]. Moreover, the normalised response is 108% in [7]; 110% in experiment [8]; 118% in experiment [9]; 108% in experiment [10]; 103% in experiment [11]; 90.2% in experiment [12]. The normalised response in [13] was determined as 111%; in experiment [14], 97.5%; in [15] it was 98.8%; in experiment [16], 98.8%; in [17], 108%; in experiment [18], 117%.

In the case of `O=C(Nc1cccnc1)N1CCC(Cc2cccc(Oc3ccc(C(F)(F)F)cn3)c2)CC1` [PF-3845] (1 nM), the normalised response in experiment [1] stood at 130%; in experiment [2], 104%; in experiment [3], 98.4%; in [4] it was 119%; in [5] it was 97.8%; in [6] it was 105%. The normalised response in experiment [7] came out at 98.6%; in experiment [8], 89.1%; in [9] it was 122%; in [10] it was 108%; in experiment [11], 91.6%; in experiment [12] it was 102%. In addition, the normalised response in [13] amounted to 105%; in [14] it was 108%; in experiment [15], 104%; in [16] it was 110%; in [17], 99.5%; in [18], 113%.

Regarding `CNC(=O)c1cc(Oc2ccc(NC(=O)Nc3ccc(Cl)c(C(F)(F)F)c3)cc2)ccn1` [Sorafenib] (0.1 nM), the normalised response worked out at 96.4% in [1]; 100% in experiment [2]; 88.9% in [3]; 103% in [4]; 85.9% in experiment [5]; 102% in [6]. For the same compound, the normalised response was 63.1% in experiment [7]; 92.2% in experiment [8]; 94.3% in experiment [9]; 86.4% in experiment [10]; 65.9% in experiment [11]; 104% in [12]. Further, the normalised response in [13] worked out at 100%; in experiment [14] it was 102%; in [15], 98.5%; in experiment [16], 107%; in experiment [17], 96.6%; in experiment [18], 66.9%.
